This passage reports binding results from paper PMC3737531.

The chains behind the UniProt entries cited, without tags or fusion partners. Where a name states a change or a piece, a line headed by the entry shows the natural chain unless it says otherwise. A line that says so, or that is headed by a name, gives the form on record, which may keep a tag or linker.
UniProt Q8NI27: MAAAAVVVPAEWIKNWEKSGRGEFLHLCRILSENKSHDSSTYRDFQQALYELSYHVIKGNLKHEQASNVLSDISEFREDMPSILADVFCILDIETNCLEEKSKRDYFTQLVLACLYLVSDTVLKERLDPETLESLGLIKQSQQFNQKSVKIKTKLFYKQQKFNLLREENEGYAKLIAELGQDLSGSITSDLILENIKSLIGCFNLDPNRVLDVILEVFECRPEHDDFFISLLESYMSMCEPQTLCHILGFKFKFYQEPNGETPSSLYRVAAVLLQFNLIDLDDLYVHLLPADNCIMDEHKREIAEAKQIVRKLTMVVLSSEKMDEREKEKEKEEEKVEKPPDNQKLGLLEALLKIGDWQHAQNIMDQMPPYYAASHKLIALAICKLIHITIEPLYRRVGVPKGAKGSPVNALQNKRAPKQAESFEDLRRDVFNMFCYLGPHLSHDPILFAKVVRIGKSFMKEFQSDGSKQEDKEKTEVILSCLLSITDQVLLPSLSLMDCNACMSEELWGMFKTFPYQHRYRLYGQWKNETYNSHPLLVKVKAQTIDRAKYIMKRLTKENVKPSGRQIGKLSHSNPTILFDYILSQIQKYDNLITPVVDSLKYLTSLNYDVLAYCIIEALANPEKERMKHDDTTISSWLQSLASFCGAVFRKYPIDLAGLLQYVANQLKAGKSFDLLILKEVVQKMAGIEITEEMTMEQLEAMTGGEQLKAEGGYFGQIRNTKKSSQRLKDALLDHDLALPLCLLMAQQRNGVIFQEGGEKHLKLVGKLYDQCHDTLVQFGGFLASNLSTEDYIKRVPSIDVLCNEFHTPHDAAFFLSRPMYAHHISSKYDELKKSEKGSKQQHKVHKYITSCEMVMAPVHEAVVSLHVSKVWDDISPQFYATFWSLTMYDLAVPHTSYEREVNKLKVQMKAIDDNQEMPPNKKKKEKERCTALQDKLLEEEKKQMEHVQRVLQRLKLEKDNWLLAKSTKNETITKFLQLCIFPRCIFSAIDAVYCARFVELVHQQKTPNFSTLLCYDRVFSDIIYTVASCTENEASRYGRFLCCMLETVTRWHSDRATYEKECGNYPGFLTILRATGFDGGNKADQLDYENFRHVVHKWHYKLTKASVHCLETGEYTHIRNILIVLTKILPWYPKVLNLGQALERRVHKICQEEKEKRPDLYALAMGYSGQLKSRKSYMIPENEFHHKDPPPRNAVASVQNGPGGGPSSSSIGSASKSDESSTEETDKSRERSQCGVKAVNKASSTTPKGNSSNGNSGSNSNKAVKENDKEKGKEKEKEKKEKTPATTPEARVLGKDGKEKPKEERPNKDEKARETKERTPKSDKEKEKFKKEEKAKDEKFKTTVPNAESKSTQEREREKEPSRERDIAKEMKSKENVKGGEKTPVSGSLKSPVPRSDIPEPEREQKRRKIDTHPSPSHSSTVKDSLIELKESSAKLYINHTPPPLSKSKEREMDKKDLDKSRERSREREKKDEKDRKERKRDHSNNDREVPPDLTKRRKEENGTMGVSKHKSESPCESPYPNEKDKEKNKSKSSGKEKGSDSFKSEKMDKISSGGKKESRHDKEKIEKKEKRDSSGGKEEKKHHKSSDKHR
UniProt Q16630: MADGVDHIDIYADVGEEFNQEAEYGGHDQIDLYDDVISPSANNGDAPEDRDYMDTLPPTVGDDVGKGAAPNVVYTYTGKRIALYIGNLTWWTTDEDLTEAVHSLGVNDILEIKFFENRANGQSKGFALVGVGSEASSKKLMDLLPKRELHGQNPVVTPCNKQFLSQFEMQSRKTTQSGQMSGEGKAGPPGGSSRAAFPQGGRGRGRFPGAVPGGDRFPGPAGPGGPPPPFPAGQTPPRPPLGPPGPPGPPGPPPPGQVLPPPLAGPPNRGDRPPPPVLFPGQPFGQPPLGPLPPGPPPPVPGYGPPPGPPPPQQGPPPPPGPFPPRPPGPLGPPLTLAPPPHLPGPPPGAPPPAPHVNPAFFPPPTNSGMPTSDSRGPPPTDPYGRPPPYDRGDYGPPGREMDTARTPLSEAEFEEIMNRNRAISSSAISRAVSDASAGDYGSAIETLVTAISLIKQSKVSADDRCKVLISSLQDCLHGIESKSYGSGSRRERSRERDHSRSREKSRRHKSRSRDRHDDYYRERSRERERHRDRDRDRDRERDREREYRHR
CFIm72, a large subunit of CFIm (Q16630-2, form named): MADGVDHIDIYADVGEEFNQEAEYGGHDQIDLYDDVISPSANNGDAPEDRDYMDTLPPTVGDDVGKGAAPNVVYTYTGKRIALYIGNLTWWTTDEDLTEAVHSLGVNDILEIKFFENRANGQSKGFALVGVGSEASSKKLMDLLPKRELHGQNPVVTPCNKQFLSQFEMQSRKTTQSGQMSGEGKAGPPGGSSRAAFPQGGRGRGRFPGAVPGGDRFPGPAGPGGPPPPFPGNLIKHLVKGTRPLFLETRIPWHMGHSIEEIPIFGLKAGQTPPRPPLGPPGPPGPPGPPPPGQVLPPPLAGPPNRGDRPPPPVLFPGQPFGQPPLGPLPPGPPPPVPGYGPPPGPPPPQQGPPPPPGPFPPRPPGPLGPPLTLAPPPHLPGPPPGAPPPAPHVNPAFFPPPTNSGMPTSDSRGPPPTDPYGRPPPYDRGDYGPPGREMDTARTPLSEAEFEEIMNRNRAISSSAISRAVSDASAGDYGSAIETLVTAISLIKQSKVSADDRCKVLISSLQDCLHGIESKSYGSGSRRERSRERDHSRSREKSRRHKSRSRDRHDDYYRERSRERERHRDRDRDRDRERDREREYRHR

Experiment in all cases: co-IP; RNase A-treated HeLa whole-cell extract; antibodies on protein A-Sepharose beads; RSBN (10 mM Tris-HCl pH 7.4, 100 mM NaCl, 2.5 mM MgCl2, 0.1% NP-40), 4°C, 3 h; five washes; western blotting; control rabbit anti-mouse IgG
Background: Immunoblotting shows a protein as a band on a membrane.

Assay [1] deals with T1, Thoc7 (human (endogenous in HeLa)) (UniProt Q6I9Y2).
T1 sequence: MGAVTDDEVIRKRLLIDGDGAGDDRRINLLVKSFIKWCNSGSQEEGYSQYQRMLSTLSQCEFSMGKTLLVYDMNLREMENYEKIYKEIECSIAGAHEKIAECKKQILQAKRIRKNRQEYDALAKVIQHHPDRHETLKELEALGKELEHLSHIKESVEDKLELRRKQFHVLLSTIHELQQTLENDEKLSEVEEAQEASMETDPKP

Assay [2] concerns the target Thoc2 (human (endogenous in HeLa)) (UniProt Q8NI27).
Assay [3] concerns the target T2, Thoc5, a component of human TREX (human (endogenous in HeLa)) (UniProt Q13769).
T2 sequence: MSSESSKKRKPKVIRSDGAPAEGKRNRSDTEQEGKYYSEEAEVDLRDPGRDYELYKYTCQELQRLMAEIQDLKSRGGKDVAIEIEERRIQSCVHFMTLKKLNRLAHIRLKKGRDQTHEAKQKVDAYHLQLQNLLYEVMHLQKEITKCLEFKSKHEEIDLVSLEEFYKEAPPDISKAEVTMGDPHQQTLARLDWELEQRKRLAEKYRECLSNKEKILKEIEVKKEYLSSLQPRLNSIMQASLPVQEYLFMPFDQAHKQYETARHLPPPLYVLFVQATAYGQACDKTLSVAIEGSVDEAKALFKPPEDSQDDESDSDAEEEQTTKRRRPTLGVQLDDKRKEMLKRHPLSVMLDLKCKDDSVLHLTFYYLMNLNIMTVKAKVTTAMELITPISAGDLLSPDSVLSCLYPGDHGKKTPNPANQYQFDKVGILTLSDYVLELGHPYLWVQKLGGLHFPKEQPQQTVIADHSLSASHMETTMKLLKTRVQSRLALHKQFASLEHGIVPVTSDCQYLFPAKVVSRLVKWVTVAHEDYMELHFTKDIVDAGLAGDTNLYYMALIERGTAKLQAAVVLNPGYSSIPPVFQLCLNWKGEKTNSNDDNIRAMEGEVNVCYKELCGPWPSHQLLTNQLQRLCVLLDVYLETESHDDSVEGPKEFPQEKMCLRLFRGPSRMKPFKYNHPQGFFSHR

Results are given in words; binding and its absence hold for the method and conditions named. In cells and extracts the contact can be indirect. Some results given as binding are weak or reduced against the parent protein; the word gives no strength.

Regarding “CFIm68, a large subunit of mammalian cleavage factor I (CFIm) (from UniProt Q16630 1-551)”, the binding result in assay [1], in assay [2] and in assay [3] was “binds” in each case.
In the case of “CFIm72, a large subunit of CFIm (from UniProt Q16630-2 1-588)”, the binding result in assay [3] is on record as “binds”.

B1: CPSF100 (protein, UniProt Q9P2I0 1-782)
chain: MTSIIKLTTLSGVQEESALCYLLQVDEFRFLLDCGWDEHFSMDIIDSLRKHVHQIDAVLLSHPDPLHLGALPYAVGKLGLNCAIYATIPVYKMGQMFMYDLYQSRHNTEDFTLFTLDDVDAAFDKIQQLKFSQIVNLKGKGHGLSITPLPAGHMIGGTIWKIVKDGEEEIVYAVDFNHKREIHLNGCSLEMLSRPSLLITDSFNATYVQPRRKQRDEQLLTNVLETLRGDGNVLIAVDTAGRVLELAQLLDQIWRTKDAGLGVYSLALLNNVSYNVVEFSKSQVEWMSDKLMRCFEDKRNNPFQFRHLSLCHGLSDLARVPSPKVVLASQPDLECGFSRDLFIQWCQDPKNSIILTYRTTPGTLARFLIDNPSEKITEIELRKRVKLEGKELEEYLEKEKLKKEAAKKLEQSKEADIDSSDESDIEEDIDQPSAHKTKHDLMMKGEGSRKGSFFKQAKKSYPMFPAPEERIKWDEYGEIIKPEDFLVPELQATEEEKSKLESGLTNGDEPMDQDLSDVPTKCISTTESIEIKARVTYIDYEGRSDGDSIKKIINQMKPRQLIIVHGPPEASQDLAECCRAFGGKDIKVYMPKLHETVDATSETHIYQVRLKDSLVSSLQFCKAKDAELAWIDGVLDMRVSKVDTGVILEEGELKDDGEDSEMQVEAPSDSSVIAQQKAMKSLFGDDEKETGEESEIIPTLEPLPPHEVPGHQSVFMNEPRLSDFKQVLLREGIQAEFVGGVLVCNNQVAVRRTETGRIGLEGCLCQDFYRIRDLLYEQYAIV
Consider B1, for which the binding result in assay [1], in assay [2] and in assay [3] was “binds” each time.

B2: CPSF73 (protein, UniProt Q9UKF6 1-684)
chain: MSAIPAEESDQLLIRPLGAGQEVGRSCIILEFKGRKIMLDCGIHPGLEGMDALPYIDLIDPAEIDLLLISHFHLDHCGALPWFLQKTSFKGRTFMTHATKAIYRWLLSDYVKVSNISADDMLYTETDLEESMDKIETINFHEVKEVAGIKFWCYHAGHVLGAAMFMIEIAGVKLLYTGDFSRQEDRHLMAAEIPNIKPDILIIESTYGTHIHEKREEREARFCNTVHDIVNRGGRGLIPVFALGRAQELLLILDEYWQNHPELHDIPIYYASSLAKKCMAVYQTYVNAMNDKIRKQININNPFVFKHISNLKSMDHFDDIGPSVVMASPGMMQSGLSRELFESWCTDKRNGVIIAGYCVEGTLAKHIMSEPEEITTMSGQKLPLKMSVDYISFSAHTDYQQTSEFIRALKPPHVILVHGEQNEMARLKAALIREYEDNDEVHIEVHNPRNTEAVTLNFRGEKLAKVMGFLADKKPEQGQRVSGILVKRNFNYHILSPCDLSNYTDLAMSTVKQTQAIPYTGPFNLLCYQLQKLTGDVEELEIQEKPALKVFKNITVIQEPGMVVLEWLANPSNDMYADTVTTVILEVQSNPKIRKGAVQKVSKKLEMHVYSKRLEIMLQDIFGEDCVSVKDDSILSVTVDGKTANLNLETRTVECEEGSEDDESLREMVELAAQRLYEALTPVH
With B2, the binding result in assay [1], in assay [2] and in assay [3] was “binds” in each case.

B3: hFip1 (protein, UniProt Q6UN15 1-594)
chain: MSAGEVERLVSELSGGTGGDEEEEWLYGGPWDVHVHSDLAKDLDENEVERPEEENASANPPSGIEDETAENGVPKPKVTETEDDSDSDSDDDEDDVHVTIGDIKTGAPQYGSYGTAPVNLNIKTGGRVYGTTGTKVKGVDLDAPGSINGVPLLEVDLDSFEDKPWRKPGADLSDYFNYGFNEDTWKAYCEKQKRIRMGLEVIPVTSTTNKITAEDCTMEVTPGAEIQDGRFNLFKVQQGRTGNSEKETALPSTKAEFTSPPSLFKTGLPPSRNSTSSQSQTSTASRKANSSVGKWQDRYGRAESPDLRRLPGAIDVIGQTITISRVEGRRRANENSNIQVLSERSATEVDNNFSKPPPFFPPGAPPTHLPPPPFLPPPPTVSTAPPLIPPPGFPPPPGAPPPSLIPTIESGHSSGYDSRSARAFPYGNVAFPHLPGSAPSWPSLVDTSKQWDYYARREKDRDRERDRDRERDRDRDRERERTRERERERDHSPTPSVFNSDEERYRYREYAERGYERHRASREKEERHRERRHREKEETRHKSSRSNSRRRHESEEGDSHRRHKHKKSKRSKEGKEAGSEPAPEQESTEATPAE
Regarding B3, the binding result in assay [1], in assay [2] and in assay [3] was “binds” each time.

B4: CstF77 (protein, UniProt Q12996 1-717)
chain: MSGDGATEQAAEYVPEKVKKAEKKLEENPYDLDAWSILIREAQNQPIDKARKTYERLVAQFPSSGRFWKLYIEAEIKAKNYDKVEKLFQRCLMKVLHIDLWKCYLSYVRETKGKLPSYKEKMAQAYDFALDKIGMEIMSYQIWVDYINFLKGVEAVGSYAENQRITAVRRVYQRGCVNPMINIEQLWRDYNKYEEGINIHLAKKMIEDRSRDYMNARRVAKEYETVMKGLDRNAPSVPPQNTPQEAQQVDMWKKYIQWEKSNPLRTEDQTLITKRVMFAYEQCLLVLGHHPDIWYEAAQYLEQSSKLLAEKGDMNNAKLFSDEAANIYERAISTLLKKNMLLYFAYADYEESRMKYEKVHSIYNRLLAIEDIDPTLVYIQYMKFARRAEGIKSGRMIFKKAREDTRTRHHVYVTAALMEYYCSKDKSVAFKIFELGLKKYGDIPEYVLAYIDYLSHLNEDNNTRVLFERVLTSGSLPPEKSGEIWARFLAFESNIGDLASILKVEKRRFTAFKEEYEGKETALLVDRYKFMDLYPCSASELKALGYKDVSRAKLAAIIPDPVVAPSIVPVLKDEVDRKPEYPKPDTQQMIPFQPRHLAPPGLHPVPGGVFPVPPAAVVLMKLLPPPICFQGPFVQVDELMEIFRRCKIPNTVEEAVRIITGGAPELAVEGNGPVESNAVLTKAVKRPNEDSDEDEEKGAVVPPVHDIYRARQQKRIR
For the molecule B4, the binding result in assay [1], in assay [2] and in assay [3] was “binds” in each case.
